Our source for the log2 fold change values is the supplement of paper PMC10849652.

The chains behind the UniProt entries cited, without tags or fusion partners. Where a name states a change or a piece, a line headed by the entry shows the natural chain unless it says otherwise.
UniProt Q969H8: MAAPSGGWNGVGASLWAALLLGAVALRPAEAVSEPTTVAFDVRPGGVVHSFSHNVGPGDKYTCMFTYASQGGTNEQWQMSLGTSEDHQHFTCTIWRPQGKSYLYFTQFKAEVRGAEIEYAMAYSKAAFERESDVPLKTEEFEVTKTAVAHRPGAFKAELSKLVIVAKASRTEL
UniProt Q15746, whole entry, looked up: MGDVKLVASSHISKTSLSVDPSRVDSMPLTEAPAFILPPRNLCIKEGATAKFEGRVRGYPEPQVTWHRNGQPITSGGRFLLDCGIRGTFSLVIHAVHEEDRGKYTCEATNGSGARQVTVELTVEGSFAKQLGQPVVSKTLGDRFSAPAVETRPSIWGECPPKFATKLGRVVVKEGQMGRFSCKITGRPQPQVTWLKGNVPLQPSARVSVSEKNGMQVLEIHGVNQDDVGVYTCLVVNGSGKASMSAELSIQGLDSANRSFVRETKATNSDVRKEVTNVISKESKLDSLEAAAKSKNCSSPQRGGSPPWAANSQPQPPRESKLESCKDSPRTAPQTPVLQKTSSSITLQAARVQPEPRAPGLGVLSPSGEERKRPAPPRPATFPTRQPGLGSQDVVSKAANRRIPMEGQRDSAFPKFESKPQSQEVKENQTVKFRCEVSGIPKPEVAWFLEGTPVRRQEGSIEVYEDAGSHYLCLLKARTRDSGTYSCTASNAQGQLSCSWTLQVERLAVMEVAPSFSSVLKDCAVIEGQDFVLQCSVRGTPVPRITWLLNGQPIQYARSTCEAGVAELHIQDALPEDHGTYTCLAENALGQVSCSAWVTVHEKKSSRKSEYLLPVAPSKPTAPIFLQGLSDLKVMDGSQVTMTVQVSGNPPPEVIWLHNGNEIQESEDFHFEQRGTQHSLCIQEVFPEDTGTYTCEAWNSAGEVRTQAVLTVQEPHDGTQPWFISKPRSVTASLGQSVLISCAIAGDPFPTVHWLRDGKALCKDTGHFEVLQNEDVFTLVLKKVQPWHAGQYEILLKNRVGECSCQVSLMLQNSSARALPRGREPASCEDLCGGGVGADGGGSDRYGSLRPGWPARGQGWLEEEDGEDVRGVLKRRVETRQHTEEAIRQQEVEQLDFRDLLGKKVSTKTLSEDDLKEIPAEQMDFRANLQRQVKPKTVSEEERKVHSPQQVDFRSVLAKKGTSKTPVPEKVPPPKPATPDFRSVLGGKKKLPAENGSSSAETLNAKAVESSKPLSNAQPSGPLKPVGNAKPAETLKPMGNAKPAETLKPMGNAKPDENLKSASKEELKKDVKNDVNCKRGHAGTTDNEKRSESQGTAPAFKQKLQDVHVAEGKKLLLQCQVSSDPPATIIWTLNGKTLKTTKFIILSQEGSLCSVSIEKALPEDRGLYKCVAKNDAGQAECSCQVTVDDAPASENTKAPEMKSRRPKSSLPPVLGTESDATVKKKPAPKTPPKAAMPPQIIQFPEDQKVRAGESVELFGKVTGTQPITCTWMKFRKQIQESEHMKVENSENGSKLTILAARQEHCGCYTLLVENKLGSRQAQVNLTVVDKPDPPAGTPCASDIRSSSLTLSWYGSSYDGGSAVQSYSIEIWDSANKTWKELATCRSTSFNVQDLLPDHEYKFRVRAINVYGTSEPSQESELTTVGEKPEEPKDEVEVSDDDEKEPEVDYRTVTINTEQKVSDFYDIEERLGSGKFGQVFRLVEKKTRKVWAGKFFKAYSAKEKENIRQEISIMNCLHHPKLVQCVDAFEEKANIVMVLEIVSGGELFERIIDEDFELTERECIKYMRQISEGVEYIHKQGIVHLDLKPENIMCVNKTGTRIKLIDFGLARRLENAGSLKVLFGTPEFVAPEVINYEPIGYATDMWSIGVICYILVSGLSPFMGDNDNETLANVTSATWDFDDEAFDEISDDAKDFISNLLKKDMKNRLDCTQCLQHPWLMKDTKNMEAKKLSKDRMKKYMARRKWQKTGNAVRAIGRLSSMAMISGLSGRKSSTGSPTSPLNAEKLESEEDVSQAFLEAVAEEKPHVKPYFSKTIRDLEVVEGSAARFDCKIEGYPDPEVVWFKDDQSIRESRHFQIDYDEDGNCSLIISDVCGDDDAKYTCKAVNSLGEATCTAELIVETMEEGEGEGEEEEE
NBDY, A0A0U1RRE5, UniProt A0A0U1RRE5, whole entry, looked up: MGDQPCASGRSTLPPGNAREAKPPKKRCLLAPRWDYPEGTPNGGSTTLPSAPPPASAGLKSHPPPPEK
UniProt P60660, whole entry, looked up: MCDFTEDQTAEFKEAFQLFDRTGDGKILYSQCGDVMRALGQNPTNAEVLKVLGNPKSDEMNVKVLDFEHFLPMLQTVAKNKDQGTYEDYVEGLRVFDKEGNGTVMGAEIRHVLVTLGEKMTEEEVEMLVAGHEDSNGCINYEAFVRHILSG
UniProt Q8WUY8: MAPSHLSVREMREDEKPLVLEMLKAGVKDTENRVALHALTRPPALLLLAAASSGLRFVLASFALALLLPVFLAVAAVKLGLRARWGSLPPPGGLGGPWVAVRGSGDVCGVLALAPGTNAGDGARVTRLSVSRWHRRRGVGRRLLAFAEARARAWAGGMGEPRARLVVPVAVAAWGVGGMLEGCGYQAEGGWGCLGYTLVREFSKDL
UniProt Q99733: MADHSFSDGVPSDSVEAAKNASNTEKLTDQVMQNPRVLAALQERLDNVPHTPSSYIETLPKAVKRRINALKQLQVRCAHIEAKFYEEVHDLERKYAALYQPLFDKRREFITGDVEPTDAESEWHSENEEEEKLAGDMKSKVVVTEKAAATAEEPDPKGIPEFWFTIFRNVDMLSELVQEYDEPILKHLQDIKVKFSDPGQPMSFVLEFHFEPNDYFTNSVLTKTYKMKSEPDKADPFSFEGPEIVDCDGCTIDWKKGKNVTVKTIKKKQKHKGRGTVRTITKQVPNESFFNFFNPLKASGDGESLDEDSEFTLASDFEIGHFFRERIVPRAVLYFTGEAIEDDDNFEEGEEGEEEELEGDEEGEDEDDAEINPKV
UniProt Q8N6N6: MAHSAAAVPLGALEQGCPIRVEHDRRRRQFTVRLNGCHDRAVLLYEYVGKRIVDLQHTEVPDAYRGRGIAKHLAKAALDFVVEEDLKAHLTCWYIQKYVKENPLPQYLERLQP
UniProt Q6N069: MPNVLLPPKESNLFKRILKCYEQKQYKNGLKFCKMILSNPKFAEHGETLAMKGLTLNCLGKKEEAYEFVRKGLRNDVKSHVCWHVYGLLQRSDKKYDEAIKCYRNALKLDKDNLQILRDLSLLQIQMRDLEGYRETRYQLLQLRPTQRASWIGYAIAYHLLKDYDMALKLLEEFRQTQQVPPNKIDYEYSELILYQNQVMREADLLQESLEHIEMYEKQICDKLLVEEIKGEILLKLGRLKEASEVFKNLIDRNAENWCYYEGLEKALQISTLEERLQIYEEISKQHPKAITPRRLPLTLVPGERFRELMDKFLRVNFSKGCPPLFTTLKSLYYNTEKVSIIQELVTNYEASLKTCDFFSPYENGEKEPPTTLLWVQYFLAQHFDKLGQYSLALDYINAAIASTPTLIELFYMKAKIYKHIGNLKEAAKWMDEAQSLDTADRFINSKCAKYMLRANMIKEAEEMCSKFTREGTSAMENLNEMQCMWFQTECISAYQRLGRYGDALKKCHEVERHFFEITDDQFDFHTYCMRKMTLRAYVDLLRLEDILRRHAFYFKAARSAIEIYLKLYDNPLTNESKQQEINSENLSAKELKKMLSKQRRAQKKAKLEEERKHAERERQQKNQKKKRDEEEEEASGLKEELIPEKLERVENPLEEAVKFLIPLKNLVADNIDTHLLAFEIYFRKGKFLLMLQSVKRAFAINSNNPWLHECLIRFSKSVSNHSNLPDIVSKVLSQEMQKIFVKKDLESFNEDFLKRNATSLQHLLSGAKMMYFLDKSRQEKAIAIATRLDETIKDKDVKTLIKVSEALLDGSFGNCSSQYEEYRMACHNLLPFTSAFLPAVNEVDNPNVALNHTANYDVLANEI

Holding throughout (assay): log2 fold change, soluble protein after heating vs DMSO (PISA); higher = thermal stabilisation; K562 lysate, 10 uM; active = over 0.2 and 3.5 SD of the protein, either way, in both replicates (recomputed)
Compound in one assay: CCCS(=O)(=O)Nc1ccc(F)c(C(=O)c2c[nH]c3ncc(-c4ccc(Cl)cc4)cc23)c1F [vemurafenib]
In a few lines: (§1)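 K562 pellets were dounce-homogenised in PBS pH 7.4 with 1 mM MgCl2, and the crude extract at 1 mg/mL protein was treated with 10 μM compound for 30 min. Aliquots were heated for 3 min across 48°C-58°C, pooled, and brought to 0.5% NP-40 at 4°C; soluble protein was the supernatant after 21,000xg for 90 min. Soluble protein was quantified by TMTpro 16plex LC-MS/MS with channel sums equalised, and reported as log2 fold change in thermal stability against DMSO controls, with values from duplicates.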

Compound in assay [1]: CCCS(=O)(=O)Nc1ccc(F)c(C(=O)c2c[nH]c3ncc(Cl)cc23)c1F
A digest of the protocol:
as §1

Compound in another assay: CCN(CCCOc1ccc2c(Nc3cc(CC(=O)Nc4cccc(F)c4)[nH]n3)ncnc2c1)CCOP(=O)(O)O [barasertib]
A digest of the protocol:
as §1

Compound in assay [2]: CC[C@@H]1C(=O)N(C)c2cnc(Nc3ccc(C(=O)NC4CCN(C)CC4)cc3OC)nc2N1C1CCCC1
A digest of the protocol: as §1

Compound in the next assay: CC[C@@H]1C(=O)N(C)c2cnc(Nc3ccc(C(=O)N[C@H]4CC[C@H](N5CCN(CC6CC6)CC5)CC4)cc3OC)nc2N1C(C)C [volasertib]
In a few lines: as §1

Compound in assay [3]: CCn1c(C(=O)N(C2CC2)C2CC2)cc2c3c(ncn3C)c(Nc3cc(C)n(C)n3)nc21
In a few lines:
as §1

Compound in assay [4]: CCn1cc(-c2ccnc3[nH]c(-c4cccc(CN(C)C)c4)cc23)c(-c2ccc(NC(=O)N(C)C)cc2)n1
A digest of the protocol:
as §1

Compound in assay [5]: CN1CCC(CNc2ccc3ncc(-c4cccc(OC(F)(F)F)c4)n3n2)CC1
A digest of the protocol:
as §1

Compound in a further assay: CN1CCN(CCOc2cc(OC3CCOCC3)c3c(Nc4c(Cl)ccc5c4OCO5)ncnc3c2)CC1 [saracatinib]
A digest of the protocol: as §1

Compound in a further assay: CN1CCN(c2nc(C3=C(c4c[nH]c5ccccc45)C(=O)NC3=O)c3ccccc3n2)CC1 [sotrastaurin]
In a few lines:
as §1

Compound in a further assay: CN1CC[C@H](c2c(O)cc(O)c3c(=O)cc(-c4ccccc4Cl)oc23)[C@H](O)C1 [alvocidib]
A digest of the protocol:
as §1

Compound in a further assay: CN1CCc2c(c3ccccc3n2Cc2ccc(C(=O)NO)cc2)C1 [Tubastatin A]
A digest of the protocol: as §1

Compound in assay [6]: CNC(=O)C1=CC=CC=C1NC2=NC(=NC=C2Cl)NC3=C(C=C(C=C3)N4CCOCC4)OC
A digest of the protocol: as §1

Compound in another assay: CNC(=O)c1ccc(Nc2ncc(C(F)(F)F)c(NCc3nccnc3N(C)S(C)(=O)=O)n2)cc1 [defactinib]
A digest of the protocol: as §1

Compound in assay [7]: CNc1nc(-c2ccc3c(N)n[nH]c3c2)cc(N2C[C@@H](C(=O)NC3CCCCC3)CC[C@H]2C)n1
In a few lines:
as §1

Compound in another assay: COC(=O)N[C@@H](C)CNc1nccc(-c2cn(C(C)C)nc2-c2cc(Cl)cc(NS(C)(=O)=O)c2F)n1 [encorafenib]
In a few lines:
as §1

Compound in assay [8]: COC(=O)[C@H](CCSC)NC(=O)C1=C(C=C(C=C1)NC[C@H](CS)N)C2=CC=CC=C2
In a few lines: as §1

Compound in another assay: COc1cc(Nc2ncc3c(n2)-c2ccc(Cl)cc2C(c2c(F)cccc2OC)=NC3)ccc1C(=O)O [alisertib]
In a few lines:
as §1

Compound in assay [9]: COc1cc2nc(-c3cc(F)ccc3O)nc(N[C@@H]3CNC[C@H]3C(C)(C)O)c2cc1OC
A digest of the protocol:
as §1

Compound in the next assay: COc1cc2ncnc(Nc3ccc(F)c(Cl)c3)c2cc1OCCCN1CCOCC1 [gefitinib]
A digest of the protocol: as §1

The other results are listed elsewhere or left out.

With MYDGF (UniProt Q969H8), the log2 fold change with vemurafenib is inactive: 0.028; in [1], inactive: -0.014; with barasertib, inactive: -0.019; in assay [2] it was inactive: 0.054; with volasertib, inactive: 0.053; in assay [3] it was inactive: -0.021. In addition, the log2 fold change in assay [4] is inactive: -0.106; in [5], inactive: 0.066; with saracatinib, inactive: 0.004; with sotrastaurin it was inactive: -0.002; with alvocidib it was inactive: -0.024; with Tubastatin A, inactive: 0.056. The log2 fold change was inactive: -0.005 in [6]; inactive: -0.013 with defactinib; inactive: 0.036 in assay [7]; inactive: 0.015 with encorafenib; inactive: -0.02 in assay [8]; inactive: -0.012 in the assay with alisertib. Further, the log2 fold change in assay [9] is inactive: 0.035; in the assay with gefitinib, inactive: -0.024.

For the target MYLK (UniProt Q15746), the log2 fold change with vemurafenib was inactive: -0.254; in [1], inactive: -0.022; with barasertib, inactive: -0.097; in [2], active: -0.675; with volasertib it was inactive: -0.053; in assay [4], inactive: -0.169. Besides, the log2 fold change in assay [5] was inactive: 0.014; with sotrastaurin it was inactive: -0.084; in the assay with alvocidib, inactive: 0.097; with defactinib it was inactive: 0.128; with encorafenib, inactive: 0.154; in assay [8], inactive: -0.008. The log2 fold change was inactive: -0.001 in the assay with alisertib, inactive: -0.109 in assay [9] and inactive: 0.071 with gefitinib.

For NBDY, A0A0U1RRE5, the log2 fold change with vemurafenib was inactive: -0.117; in assay [1], inactive: -0.092; with barasertib, inactive: 0.226; in the assay with volasertib, inactive: 0.167; in [3] it was inactive: 0.014; in [4], inactive: 0.049. The log2 fold change was inactive: -0.116 in [5]; inactive: -0.055 with saracatinib; inactive: -0.189 with sotrastaurin; inactive: 0.014 with alvocidib; inactive: 0.063 with Tubastatin A; inactive: -0.063 in [6]. The log2 fold change with defactinib was inactive: 0.193; in assay [7] it was inactive: 0.161; with alisertib it was inactive: 0.105; in assay [9], inactive: 0.061; with gefitinib, inactive: -0.195.

Take MYL6 isoform 2 (UniProt P60660): the log2 fold change was inactive: -0.309 with vemurafenib; inactive: 0.07 in assay [1]; inactive: -0.05 in assay [2]; inactive: -0.046 with volasertib; inactive: -0.005 in assay [3]; inactive: -0.164 in assay [4]. In addition, the log2 fold change in assay [5] is inactive: -0.027; with saracatinib it was inactive: -0.012; with sotrastaurin it was inactive: -0.001; with alvocidib it was inactive: 0.008; with Tubastatin A, inactive: 0.062; in [6] it was inactive: 0.075. Besides, the log2 fold change was inactive: -0.221 in the assay with defactinib; inactive: 0.037 in [7]; inactive: -0.082 with encorafenib; inactive: -0.158 in assay [8]; inactive: 0 with alisertib; inactive: -0.021 in [9]. Besides, the log2 fold change with gefitinib is inactive: -0.07.

Regarding NAT14 (UniProt Q8WUY8), the log2 fold change was inactive: 0.08 with vemurafenib; inactive: 0.061 in assay [2]; inactive: 0.033 in assay [3]; inactive: -0.058 in assay [4]; inactive: -0.264 in assay [5]; inactive: 0.086 with saracatinib. The log2 fold change in the assay with sotrastaurin is inactive: 0.137; with alvocidib it was inactive: -0.111; in the assay with Tubastatin A it was inactive: -0.145; in assay [6], inactive: 0.025; with defactinib, inactive: 0.088; in [7] it was inactive: 0.051. For the same target, the log2 fold change with encorafenib was inactive: 0.158; in assay [8], inactive: 0.306.

On to NAP1L4 isoform 2 (UniProt Q99733), for which the log2 fold change with vemurafenib is inactive: -0.02; in assay [1], inactive: 0; with barasertib, inactive: -0.032; in [2], inactive: 0.001; in the assay with volasertib it was inactive: 0.003; in assay [3] it was inactive: 0.024. The log2 fold change in assay [4] is inactive: 0.052; in assay [5], inactive: -0.021; with saracatinib it was inactive: 0.011; with sotrastaurin, inactive: 0.007; with alvocidib, inactive: 0.014; with Tubastatin A it was inactive: 0.004. Further, the log2 fold change is inactive: -0.011 in assay [6]; inactive: 0.034 in the assay with defactinib; inactive: 0.003 in [7]; inactive: -0.014 with encorafenib; inactive: 0.001 in assay [8]; inactive: -0.005 in the assay with alisertib. Also, the log2 fold change was inactive: -0.015 in [9] and inactive: 0.006 with gefitinib.

Consider NATD1 (UniProt Q8N6N6), for which the log2 fold change with vemurafenib is inactive: -0.179; in the assay with barasertib, inactive: 0.045; in assay [2], inactive: -0.037; in [3] it was inactive: 0.003; in [4], inactive: 0.025; in assay [5], inactive: -0.029. Also, the log2 fold change was inactive: 0.019 with saracatinib; inactive: -0.02 in the assay with sotrastaurin; inactive: -0.023 with alvocidib; inactive: 0.084 in the assay with Tubastatin A; inactive: 0.027 in assay [6]; inactive: -0.074 with defactinib. Further, the log2 fold change was inactive: 0.031 in assay [7]; inactive: 0.042 in the assay with encorafenib; inactive: -0.27 in assay [8]; inactive: 0.005 with alisertib; inactive: 0.02 with gefitinib.

Consider NAA16 (UniProt Q6N069), for which the log2 fold change in the assay with vemurafenib is active: 0.902; in assay [1], inactive: -0.048; with barasertib it was inactive: 0.246; in assay [2], inactive: -0.049; with volasertib it was inactive: -0.078; in [3] it was inactive: 0.057. Further, the log2 fold change with saracatinib is inactive: -0.012; with Tubastatin A, inactive: -0.097; with defactinib, inactive: 0.086; in assay [7], inactive: -0.05; with encorafenib, inactive: 0.062; in [8], inactive: 0.169. Moreover, the results for the log2 fold change (in the assay with alisertib; in assay [9]; in the assay with gefitinib) were inactive: 0.11, inactive: -0.03 and inactive: 0.142, respectively.
